No constants are given. Whether binding was seen depends on the method and setting. In cells and extracts the contact can be indirect. A yes stands for co-enrichment or nearness to the bait. Other partners may have been found. A no says only that the protein was not detected with the bait.

Amino acid sequences for entries named in this document (tags omitted).
UniProt Q14671: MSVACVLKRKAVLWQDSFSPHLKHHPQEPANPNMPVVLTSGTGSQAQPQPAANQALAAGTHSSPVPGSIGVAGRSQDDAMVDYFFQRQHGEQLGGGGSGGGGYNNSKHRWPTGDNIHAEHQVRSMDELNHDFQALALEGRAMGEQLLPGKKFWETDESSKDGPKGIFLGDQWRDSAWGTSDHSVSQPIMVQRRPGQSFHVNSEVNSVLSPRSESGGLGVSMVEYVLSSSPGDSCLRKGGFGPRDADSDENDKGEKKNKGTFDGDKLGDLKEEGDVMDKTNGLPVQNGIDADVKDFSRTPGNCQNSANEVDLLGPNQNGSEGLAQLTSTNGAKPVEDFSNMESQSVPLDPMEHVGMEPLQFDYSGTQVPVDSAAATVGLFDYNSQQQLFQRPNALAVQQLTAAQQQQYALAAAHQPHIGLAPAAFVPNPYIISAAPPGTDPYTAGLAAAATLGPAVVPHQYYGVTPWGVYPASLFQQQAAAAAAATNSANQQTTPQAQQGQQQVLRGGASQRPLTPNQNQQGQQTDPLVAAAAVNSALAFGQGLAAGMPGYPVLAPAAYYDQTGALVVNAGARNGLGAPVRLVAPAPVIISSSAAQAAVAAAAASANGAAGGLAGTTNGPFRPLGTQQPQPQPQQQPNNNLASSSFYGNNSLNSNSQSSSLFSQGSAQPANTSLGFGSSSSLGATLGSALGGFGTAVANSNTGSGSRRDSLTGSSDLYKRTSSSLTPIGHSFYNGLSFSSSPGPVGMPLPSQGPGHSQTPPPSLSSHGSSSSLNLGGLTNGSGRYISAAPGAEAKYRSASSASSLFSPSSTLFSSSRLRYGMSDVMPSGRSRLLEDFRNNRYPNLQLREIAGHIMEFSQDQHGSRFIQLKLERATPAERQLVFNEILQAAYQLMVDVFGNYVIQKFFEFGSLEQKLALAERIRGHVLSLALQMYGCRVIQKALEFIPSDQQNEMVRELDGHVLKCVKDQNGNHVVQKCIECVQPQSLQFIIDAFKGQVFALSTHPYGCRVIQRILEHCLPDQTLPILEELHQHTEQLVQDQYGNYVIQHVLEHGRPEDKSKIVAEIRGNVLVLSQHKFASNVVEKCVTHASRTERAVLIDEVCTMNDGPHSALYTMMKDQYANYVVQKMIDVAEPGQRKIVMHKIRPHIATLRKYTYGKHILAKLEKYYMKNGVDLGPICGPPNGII
UniProt Q8TB72: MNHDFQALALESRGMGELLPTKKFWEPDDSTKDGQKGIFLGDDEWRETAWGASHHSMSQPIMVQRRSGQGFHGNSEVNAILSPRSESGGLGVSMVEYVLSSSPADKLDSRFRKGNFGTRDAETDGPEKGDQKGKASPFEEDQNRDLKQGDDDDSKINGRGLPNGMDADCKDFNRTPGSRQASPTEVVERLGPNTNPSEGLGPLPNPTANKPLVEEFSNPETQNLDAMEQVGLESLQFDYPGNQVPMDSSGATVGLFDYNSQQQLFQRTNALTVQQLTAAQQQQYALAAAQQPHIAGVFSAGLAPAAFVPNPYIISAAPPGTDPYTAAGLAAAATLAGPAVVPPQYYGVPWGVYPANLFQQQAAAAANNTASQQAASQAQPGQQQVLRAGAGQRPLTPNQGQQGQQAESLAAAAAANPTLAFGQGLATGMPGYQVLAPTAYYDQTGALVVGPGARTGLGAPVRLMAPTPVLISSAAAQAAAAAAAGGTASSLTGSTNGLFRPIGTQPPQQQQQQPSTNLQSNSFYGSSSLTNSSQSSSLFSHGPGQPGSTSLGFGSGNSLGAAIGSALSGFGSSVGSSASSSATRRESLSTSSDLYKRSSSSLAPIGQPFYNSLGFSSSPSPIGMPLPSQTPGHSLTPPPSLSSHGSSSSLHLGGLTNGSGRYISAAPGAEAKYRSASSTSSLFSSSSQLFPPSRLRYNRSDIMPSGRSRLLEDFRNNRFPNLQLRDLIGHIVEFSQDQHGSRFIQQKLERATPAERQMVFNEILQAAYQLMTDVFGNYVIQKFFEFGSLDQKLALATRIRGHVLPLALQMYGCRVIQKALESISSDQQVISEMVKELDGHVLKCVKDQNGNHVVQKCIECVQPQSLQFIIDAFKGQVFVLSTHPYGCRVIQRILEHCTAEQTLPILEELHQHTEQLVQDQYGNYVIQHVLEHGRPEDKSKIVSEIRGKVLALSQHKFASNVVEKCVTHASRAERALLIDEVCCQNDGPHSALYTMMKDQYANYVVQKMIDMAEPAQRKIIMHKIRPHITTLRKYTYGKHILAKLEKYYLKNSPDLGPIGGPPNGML
UniProt O00425: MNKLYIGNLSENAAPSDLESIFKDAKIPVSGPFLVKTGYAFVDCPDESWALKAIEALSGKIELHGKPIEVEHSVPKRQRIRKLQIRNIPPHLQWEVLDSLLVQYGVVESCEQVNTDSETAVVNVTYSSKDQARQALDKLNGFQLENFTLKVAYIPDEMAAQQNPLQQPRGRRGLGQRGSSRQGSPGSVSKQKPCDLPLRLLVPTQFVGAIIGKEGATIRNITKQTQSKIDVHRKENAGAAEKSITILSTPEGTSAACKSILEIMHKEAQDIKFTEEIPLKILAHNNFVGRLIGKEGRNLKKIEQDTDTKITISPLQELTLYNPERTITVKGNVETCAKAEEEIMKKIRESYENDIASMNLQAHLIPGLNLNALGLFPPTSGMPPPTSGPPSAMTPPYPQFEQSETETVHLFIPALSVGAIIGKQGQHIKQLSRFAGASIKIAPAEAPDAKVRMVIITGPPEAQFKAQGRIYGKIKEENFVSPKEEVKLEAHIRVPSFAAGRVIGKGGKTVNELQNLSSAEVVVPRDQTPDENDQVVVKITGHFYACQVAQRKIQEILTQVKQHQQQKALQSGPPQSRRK
UniProt P11940: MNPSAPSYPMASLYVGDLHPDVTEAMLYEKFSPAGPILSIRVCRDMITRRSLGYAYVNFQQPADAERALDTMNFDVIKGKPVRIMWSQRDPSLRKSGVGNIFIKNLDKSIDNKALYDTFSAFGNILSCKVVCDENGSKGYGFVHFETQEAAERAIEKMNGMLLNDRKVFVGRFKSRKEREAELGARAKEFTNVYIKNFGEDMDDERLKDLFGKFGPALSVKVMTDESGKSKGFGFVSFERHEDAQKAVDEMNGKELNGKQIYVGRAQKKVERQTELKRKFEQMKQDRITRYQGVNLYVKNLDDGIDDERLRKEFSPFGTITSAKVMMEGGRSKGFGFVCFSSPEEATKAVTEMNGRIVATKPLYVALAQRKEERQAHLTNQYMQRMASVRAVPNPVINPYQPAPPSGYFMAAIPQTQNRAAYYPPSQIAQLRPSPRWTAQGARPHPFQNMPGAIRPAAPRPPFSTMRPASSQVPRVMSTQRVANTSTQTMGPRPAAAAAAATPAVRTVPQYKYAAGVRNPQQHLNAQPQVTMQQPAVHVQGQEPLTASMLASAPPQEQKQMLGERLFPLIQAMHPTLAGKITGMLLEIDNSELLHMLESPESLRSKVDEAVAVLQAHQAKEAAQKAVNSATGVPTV
UniProt Q07955: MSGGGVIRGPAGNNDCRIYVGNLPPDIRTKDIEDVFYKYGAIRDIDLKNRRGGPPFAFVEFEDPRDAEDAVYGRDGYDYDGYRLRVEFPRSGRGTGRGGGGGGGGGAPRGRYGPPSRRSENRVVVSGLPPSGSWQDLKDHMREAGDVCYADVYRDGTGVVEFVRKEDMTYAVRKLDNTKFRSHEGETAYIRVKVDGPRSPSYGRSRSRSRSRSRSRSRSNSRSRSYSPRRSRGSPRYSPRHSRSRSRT
UniProt Q16630: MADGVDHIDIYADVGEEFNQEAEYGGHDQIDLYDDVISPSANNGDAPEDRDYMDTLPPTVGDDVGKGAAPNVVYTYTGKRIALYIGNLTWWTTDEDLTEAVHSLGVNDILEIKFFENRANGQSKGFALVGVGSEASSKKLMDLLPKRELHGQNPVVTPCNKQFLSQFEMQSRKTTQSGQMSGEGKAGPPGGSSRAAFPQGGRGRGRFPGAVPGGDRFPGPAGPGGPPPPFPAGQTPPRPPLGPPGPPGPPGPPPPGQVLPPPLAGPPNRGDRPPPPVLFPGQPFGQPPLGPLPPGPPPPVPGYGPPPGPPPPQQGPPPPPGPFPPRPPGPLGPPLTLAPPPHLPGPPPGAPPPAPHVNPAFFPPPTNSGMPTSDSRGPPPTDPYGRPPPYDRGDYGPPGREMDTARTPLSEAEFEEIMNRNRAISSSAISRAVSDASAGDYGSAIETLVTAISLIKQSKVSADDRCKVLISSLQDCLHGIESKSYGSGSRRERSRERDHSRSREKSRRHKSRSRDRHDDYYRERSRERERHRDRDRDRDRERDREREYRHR
UniProt P35637: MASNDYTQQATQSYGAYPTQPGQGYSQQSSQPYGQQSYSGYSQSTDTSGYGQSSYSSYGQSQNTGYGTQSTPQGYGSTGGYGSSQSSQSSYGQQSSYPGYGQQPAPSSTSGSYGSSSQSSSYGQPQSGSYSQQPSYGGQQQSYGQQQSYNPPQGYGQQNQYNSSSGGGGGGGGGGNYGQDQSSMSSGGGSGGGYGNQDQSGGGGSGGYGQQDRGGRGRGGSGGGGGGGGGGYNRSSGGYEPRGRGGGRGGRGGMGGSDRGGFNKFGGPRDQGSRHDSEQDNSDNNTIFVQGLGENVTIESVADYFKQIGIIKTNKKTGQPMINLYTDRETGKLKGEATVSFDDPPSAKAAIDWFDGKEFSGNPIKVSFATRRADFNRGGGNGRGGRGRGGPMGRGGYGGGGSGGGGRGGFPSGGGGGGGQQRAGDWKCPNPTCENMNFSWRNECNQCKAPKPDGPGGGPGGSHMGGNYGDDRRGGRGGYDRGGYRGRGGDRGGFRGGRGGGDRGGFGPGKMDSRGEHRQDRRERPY
UniProt P51116: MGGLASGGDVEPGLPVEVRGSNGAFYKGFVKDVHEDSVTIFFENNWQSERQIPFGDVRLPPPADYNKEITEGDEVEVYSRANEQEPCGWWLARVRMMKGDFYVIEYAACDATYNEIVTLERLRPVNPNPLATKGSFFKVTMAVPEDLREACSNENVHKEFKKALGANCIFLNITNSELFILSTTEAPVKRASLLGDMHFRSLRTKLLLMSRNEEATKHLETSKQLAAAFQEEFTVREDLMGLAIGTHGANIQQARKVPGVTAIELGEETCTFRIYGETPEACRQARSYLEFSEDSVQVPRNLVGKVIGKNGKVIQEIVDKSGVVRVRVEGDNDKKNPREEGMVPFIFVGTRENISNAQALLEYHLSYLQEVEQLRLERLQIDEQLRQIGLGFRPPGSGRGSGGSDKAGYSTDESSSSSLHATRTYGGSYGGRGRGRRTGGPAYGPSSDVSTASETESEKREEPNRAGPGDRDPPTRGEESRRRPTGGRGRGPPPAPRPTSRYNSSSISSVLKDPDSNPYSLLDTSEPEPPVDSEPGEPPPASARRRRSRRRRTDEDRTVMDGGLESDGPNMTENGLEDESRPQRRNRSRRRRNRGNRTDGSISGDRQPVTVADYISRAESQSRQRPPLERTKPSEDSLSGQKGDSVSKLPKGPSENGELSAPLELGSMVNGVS
UniProt P67809: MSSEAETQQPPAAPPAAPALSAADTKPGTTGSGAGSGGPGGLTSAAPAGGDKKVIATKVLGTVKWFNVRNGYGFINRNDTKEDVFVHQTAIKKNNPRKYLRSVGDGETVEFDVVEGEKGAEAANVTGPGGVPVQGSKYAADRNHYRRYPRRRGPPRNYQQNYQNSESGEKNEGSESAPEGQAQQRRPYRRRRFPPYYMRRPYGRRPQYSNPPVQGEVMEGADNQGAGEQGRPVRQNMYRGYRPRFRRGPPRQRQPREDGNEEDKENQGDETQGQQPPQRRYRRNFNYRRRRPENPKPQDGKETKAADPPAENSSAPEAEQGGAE
UniProt P51114: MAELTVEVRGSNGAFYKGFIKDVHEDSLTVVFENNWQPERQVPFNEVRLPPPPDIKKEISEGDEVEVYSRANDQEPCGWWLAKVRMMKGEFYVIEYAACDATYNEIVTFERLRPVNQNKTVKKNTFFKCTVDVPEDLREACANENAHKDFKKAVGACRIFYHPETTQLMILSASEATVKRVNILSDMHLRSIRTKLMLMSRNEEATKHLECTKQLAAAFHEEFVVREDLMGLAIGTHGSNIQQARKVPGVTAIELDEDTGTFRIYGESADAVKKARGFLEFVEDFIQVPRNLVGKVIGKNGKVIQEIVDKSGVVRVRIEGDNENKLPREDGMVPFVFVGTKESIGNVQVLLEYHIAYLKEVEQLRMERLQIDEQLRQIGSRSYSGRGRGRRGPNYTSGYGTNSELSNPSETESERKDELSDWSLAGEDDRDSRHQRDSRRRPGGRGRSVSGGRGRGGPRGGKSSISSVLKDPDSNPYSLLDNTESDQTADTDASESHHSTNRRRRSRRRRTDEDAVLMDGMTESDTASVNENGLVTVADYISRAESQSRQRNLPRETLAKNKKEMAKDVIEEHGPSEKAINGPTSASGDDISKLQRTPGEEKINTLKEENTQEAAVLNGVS

Results on 19 molecules are retold here after publication PMC7226987.

Assay [1] concerns the target PUM1 (human) (UniProt Q14671). Put plainly: affinity purification with mass spectrometry; anti-PUM1 or anti-PUM2 co-IP from TCam-2 lysate on magnetic A/G beads, IgG control, on-bead digest, LC-MS/MS; three replicates without and three with RNase A; the text does not tell in which set a named hit was found.
Assay [2] addresses PUM2 (human) (UniProt Q8TB72). The assay is described as above.

Turning to RBPMS (from UniProt Q93062 1-196), the binding result in assay [1] and in assay [2] was “no binding” throughout.
For the molecule IGF2BP3 (from UniProt O00425 1-579), the binding result in assay [1] is given as “binds”.
Consider PABPC1 (from UniProt P11940 1-636), for which the binding result in assay [1] and in assay [2] was “binds” throughout.
On to HNRNPK (from UniProt P61978 1-463), for which the binding result in assay [1] is on record as “binds”.
On to SRSF1 (from UniProt Q07955 1-248), for which the binding entry in assay [2] is on record as “binds”.
On the same count and under the same terms, then PTBP1 (from UniProt P26599 1-557), with “binds”.
In the case of CPSF6 (from UniProt Q16630 1-551), the binding result in assay [1] was “binds”.
Same read-out and setting: then FUS (from UniProt P35637 1-526), with “binds”.
Consider G3BP1 (from UniProt Q13283 1-466), for which, in assay [2], the binding result is recorded as “binds”.
Turning to FXR2 (from UniProt P51116 1-673), the binding entry in assay [1] and in assay [2] was “binds” in each case.
With YBX1 (from UniProt P67809 1-324), the binding entry in assay [1] is “binds”.
Regarding FXR1 (from UniProt P51114 1-621), the binding result in assay [1] and in assay [2] was “binds” each time.

B1: CLTA (protein, UniProt P09496 1-248)
chain: MAELDPFGAPAGAPGGPALGNGVAGAGEEDPAAAFLAQQESEIAGIENDEAFAILDGGAPGPQPHGEPPGGPDAVDGVMNGEYYQESNGPTDSYAAISQVDRLQSEPESIRKWREEQMERLEALDANSRKQEAEWKEKAIKELEEWYARQDEQLQKTKANNRVADEAFYKQPFADVIGYVTNINHPCYSLEQAAEEAFVNDIDESSPGTEWERVARLCDFNPKSSKQAKDVSRMRSVLISLKQAPLVH
Regarding B1, the binding result in assay [1] was “binds”.

B2: G3BP2 (protein, UniProt Q9UN86 1-482)
chain: MVMEKPSPLLVGREFVRQYYTLLNKAPEYLHRFYGRNSSYVHGGVDASGKPQEAVYGQNDIHHKVLSLNFSECHTKIRHVDAHATLSDGVVVQVMGLLSNSGQPERKFMQTFVLAPEGSVPNKFYVHNDMFRYEDEVFGDSEPELDEESEDEVEEEQEERQPSPEPVQENANSGYYEAHPVTNGIEEPLEESSHEPEPEPESETKTEELKPQVEEKNLEELEEKSTTPPPAEPVSLPQEPPKAFSWASVTSKNLPPSGTVSSSGIPPHVKAPVSQPRVEAKPEVQSQPPRVREQRPRERPGFPPRGPRPGRGDMEQNDSDNRRIIRYPDSHQLFVGNLPHDIDENELKEFFMSFGNVVELRINTKGVGGKLPNFGFVVFDDSEPVQRILIAKPIMFRGEVRLNVEEKKTRAARERETRGGGDDRRDIRRNDRGPGGPRGIVGGGMMRDRDGRGPPPRGGMAQKLGSGRGTGQMEGRFTGQRR
Regarding B2, in assay [2], the binding entry is on record as “binds”.

B3: CPSF7 (protein, UniProt Q8N684 1-471)
chain: MSEGVDLIDIYADEEFNQDPEFNNTDQIDLYDDVLTATSQPSDDRSSSTEPPPPVRQEPSPKPNNKTPAILYTYSGLRNRRAAVYVGSFSWWTTDQQLIQVIRSIGVYDVVELKFAENRANGQSKGYAEVVVASENSVHKLLELLPGKVLNGEKVDVRPATRQNLSQFEAQARKRECVRVPRGGIPPRAHSRDSSDSADGRATPSENLVPSSARVDKPPSVLPYFNRPPSALPLMGLPPPPIPPPPPLSSSFGVPPPPPGIHYQHLMPPPPRLPPHLAVPPPGAIPPALHLNPAFFPPPNATVGPPPDTYMKASAPYNHHGSRDSGPPPSTVSEAEFEDIMKRNRAISSSAISKAVSGASAGDYSDAIETLLTAIAVIKQSRVANDERCRVLISSLKDCLHGIEAKSYSVGASGSSSRKRHRSRERSPSRSRESSRRHRDLLHNEDRHDDYFQERNREHERHRDRERDRHH
For the molecule B3, the binding result in assay [1] is “binds”.

B4: MATR3 (protein, UniProt P43243 1-847)
chain: MSKSFQQSSLSRDSQGHGRDLSAAGIGLLAAATQSLSMPASLGRMNQGTARLASLMNLGMSSSLNQQGAHSALSSASTSSHNLQSIFNIGSRGPLPLSSQHRGDADQASNILASFGLSARDLDELSRYPEDKITPENLPQILLQLKRRRTEEGPTLSYGRDGRSATREPPYRVPRDDWEEKRHFRRDSFDDRGPSLNPVLDYDHGSRSQESGYYDRMDYEDDRLRDGERCRDDSFFGETSHNYHKFDSEYERMGRGPGPLQERSLFEKKRGAPPSSNIEDFHGLLPKGYPHLCSICDLPVHSNKEWSQHINGASHSRRCQLLLEIYPEWNPDNDTGHTMGDPFMLQQSTNPAPGILGPPPPSFHLGGPAVGPRGNLGAGNGNLQGPRHMQKGRVETSRVVHIMDFQRGKNLRYQLLQLVEPFGVISNHLILNKINEAFIEMATTEDAQAAVDYYTTTPALVFGKPVRVHLSQKYKRIKKPEGKPDQKFDQKQELGRVIHLSNLPHSGYSDSAVLKLAEPYGKIKNYILMRMKSQAFIEMETREDAMAMVDHCLKKALWFQGRCVKVDLSEKYKKLVLRIPNRGIDLLKKDKSRKRSYSPDGKESPSDKKSKTDGSQKTESSTEGKEQEEKSGEDGEKDTKDDQTEQEPNMLLESEDELLVDEEEAAALLESGSSVGDETDLANLGDVASDGKKEPSDKAVKKDGSASAAAKKKLKKVDKIEELDQENEAALENGIKNEENTEPGAESSENADDPNKDTSENADGQSDENKDDYTIPDEYRIGPYQPNVPVGIDYVIPKTGFYCKLCSLFYTNEEVAKNTHCSSLPHYQKLKKFLNKLAEERRQKKET
On to B4, for which the binding result in assay [1] and in assay [2] was “binds” each time.

B5: LIN28A (protein, UniProt Q9H9Z2 1-209)
chain: MGSVSNQQFAGGCAKAAEEAPEEAPEDAARAADEPQLLHGAGICKWFNVRMGFGFLSMTARAGVALDPPVDVFVHQSKLHMEGFRSLKEGEAVEFTFKKSAKGLESIRVTGPGGVFCIGSERRPKGKSMQKRRSKGDRCYNCGGLDHHAKECKLPPQPKKCHFCQSISHMVASCPLKAQQGPSAQGKPTYFREEEEEIHSPTLLPEAQN
As for B5, the binding result in assay [1] is “binds”.

B6: SRSF7 (protein, UniProt Q16629 1-238)
chain: MSRYGRYGGETKVYVGNLGTGAGKGELERAFSYYGPLRTVWIARNPPGFAFVEFEDPRDAEDAVRGLDGKVICGSRVRVELSTGMPRRSRFDRPPARRPFDPNDRCYECGEKGHYAYDCHRYSRRRRSRSRSRSHSRSRGRRYSRSRSRSRGRRSRSASPRRSRSISLRRSRSASLRRSRSGSIKGSRYFQSPSRSRSRSRSISRPRSSRSKSRSPSPKRSRSPSGSPRRSASPERMD
With B6, in assay [2], the binding result is reported as “binds”.

B7: HNRNPM (protein, UniProt P52272 1-730)
chain: MAAGVEAAAEVAATEIKMEEESGAPGVPSGNGAPGPKGEGERPAQNEKRKEKNIKRGGNRFEPYANPTKRYRAFITNIPFDVKWQSLKDLVKEKVGEVTYVELLMDAEGKSRGCAVVEFKMEESMKKAAEVLNKHSLSGRPLKVKEDPDGEHARRAMQKVMATTGGMGMGPGGPGMITIPPSILNNPNIPNEIIHALQAGRLGSTVFVANLDYKVGWKKLKEVFSMAGVVVRADILEDKDGKSRGIGTVTFEQSIEAVQAISMFNGQLLFDRPMHVKMDERALPKGDFFPPERPQQLPHGLGGIGMGLGPGGQPIDANHLNKGIGMGNIGPAGMGMEGIGFGINKMGGMEGPFGGGMENMGRFGSGMNMGRINEILSNALKRGEIIAKQGGGGGGGSVPGIERMGPGIDRLGGAGMERMGAGLGHGMDRVGSEIERMGLVMDRMGSVERMGSGIERMGPLGLDHMASSIERMGQTMERIGSGVERMGAGMGFGLERMAAPIDRVGQTIERMGSGVERMGPAIERMGLSMERMVPAGMGAGLERMGPVMDRMATGLERMGANNLERMGLERMGANSLERMGLERMGANSLERMGPAMGPALGAGIERMGLAMGGGGGASFDRAIEMERGNFGGSFAGSFGGAGGHAPGVARKACQIFVRNLPFDFTWKMLKDKFNECGHVLYADIKMENGKSKGCGVVKFESPEVAERACRMMNGMKLSGREIDVRIDRNA
As to B7, the binding result in assay [2] is “binds”.
